In PubChem BioAssay AID2549 (National Center for Advancing Translational Sciences (NCATS), 2010):
Where “and” joins values, the source holds several entries; their conditions need not be identical. Equal entries are not always repeated. Out of some 240,000 compounds screened, about 1,300 (0.54%) were called active. This list was built around the results that the source calls inconclusive (neither active nor inactive); the mix of calls is not that of the screen. Calls follow the shape of the dose curve; as a rule, active = well fitted inhibition curve with a large enough effect; inconclusive = small, poorly fitted or top-dose-only effect; inactive = flat fitted curve, though single readings scatter. Potencies beside an inconclusive call are fits to weak or partial responses and may not hold up.

Amino acid sequences for entries named in this document (tags omitted). A change or cut given only in a name is not applied to a line headed by its entry.
UniProt P46063: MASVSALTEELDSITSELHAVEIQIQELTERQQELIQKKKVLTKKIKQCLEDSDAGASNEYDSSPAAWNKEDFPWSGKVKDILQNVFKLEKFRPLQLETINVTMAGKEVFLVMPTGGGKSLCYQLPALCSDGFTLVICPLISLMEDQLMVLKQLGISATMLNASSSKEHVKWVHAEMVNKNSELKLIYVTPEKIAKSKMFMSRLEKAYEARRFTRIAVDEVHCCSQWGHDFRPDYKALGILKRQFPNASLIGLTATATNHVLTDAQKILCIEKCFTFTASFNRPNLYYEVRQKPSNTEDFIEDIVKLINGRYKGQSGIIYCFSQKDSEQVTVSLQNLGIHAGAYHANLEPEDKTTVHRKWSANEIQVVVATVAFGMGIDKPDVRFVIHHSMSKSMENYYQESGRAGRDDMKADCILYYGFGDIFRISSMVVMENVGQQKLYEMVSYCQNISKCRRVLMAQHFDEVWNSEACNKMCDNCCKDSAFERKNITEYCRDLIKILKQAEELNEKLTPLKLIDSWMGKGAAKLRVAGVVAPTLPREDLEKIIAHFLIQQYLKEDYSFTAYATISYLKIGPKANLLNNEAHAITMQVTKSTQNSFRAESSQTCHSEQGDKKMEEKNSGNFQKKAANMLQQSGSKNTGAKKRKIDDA

What follows are compounds tested against ATP-dependent DNA helicase Q1 (Homo sapiens) (UniProt P46063) (assay: qHTS Assay for Inhibitors of RecQ-Like Dna Helicase 1 (RECQ1)). Conditions: RECQ1 DNA unwinding, red fluorescence kinetic read; series mostly up to 57.3 µM.
Outline: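 50 nM RECQ1T1 preincubated 15 min with compound in Tris pH 8.0 buffer with MgCl2, DTT, Tween-20 and 2.5 ug/ml poly(dI-dC); started with 200 nM TAMRA/BHQ-2 forked duplex and 2 mM ATP. Unwinding read as fluorescence (525/598 nm), two reads 2 h apart.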
Also: nearly all actives have a fitted effect of over 30% in size.
Potency is read from the fitted curve at half-maximal effect.

SMILES	Potency
CCC(=O)NCCCC[C@H](NC(=O)OCc1ccccc1)C(=O)Nc1ccc2c(C)cc(=O)oc2c1	inactive
Cc1cc(-c2ccc(N=Nc3ccc4c(S(=O)(=O)O)cc(S(=O)(=O)O)c(N)c4c3O)c(C)c2)ccc1N=Nc1ccc2c(S(=O)(=O)O)cc(S(=O)(=O)O)c(N)c2c1O	active: 8.91 µM
Fc1ccccc1C1c2[nH]c3ccccc3c2CCN1Cc1cccn1-c1ncccn1 (stereo not drawn)	inconclusive: 25.1 µM [inhibitor, single point]
COn1c(SCc2cccc(Cl)c2)nc2ccccc2c1=O	active: 7.08 µM
CCc1c2c(nc3cccc(C(C)C)c13)-c1cccc(=O)n1C2	inactive
CN(C)/C=C/C(=O)c1ccccc1	inconclusive: 39.8 µM [inhibitor, single point]
Nc1c(S(=O)(=O)O)cc(Nc2cccc3ccccc23)c2c1C(=O)c1ccccc1C2=O	active: 22.4 µM
CCCCC1=CC2=C(c3ccco3)C(=O)C(C)(OC(=O)c3ccc(OC)cc3)C(=O)C2=CN1CCCCO (stereo not drawn)	inactive
Cc1ccccc1Nc1oc(-c2ccccc2)nc1CCc1ccccc1	inactive
Cc1ccc(NC(=O)c2ccc(NCCc3ccccc3)c([N+](=O)[O-])c2)cc1F	inactive
CCOc1ccc(N(C)S(=O)(=O)c2ccc(C)c(C(=O)OCC(=O)c3c[nH]c4ccccc34)c2)cc1	inconclusive: 28.2 µM [inhibitor, single point]
COc1ccc(CCNC(=O)CC2SC(=NCc3ccccc3)NC2=O)cc1 (stereo not drawn)	inconclusive: 6.31 µM [inhibitor, single point]
O=C1CC(c2ccc(O)c(O)c2)Oc2cc(O)cc(O)c21 (stereo not drawn)	inconclusive: 35.5 µM [inhibitor, single point]
O=c1c(O)c(-c2ccc(O)cc2O)oc2cc(O)cc(O)c12	active: 15.8 µM and active: 7.08 µM
O=C1/C(=C/c2ccccn2)SC(=S)N1N1CCOCC1	inconclusive: 35.5 µM [inhibitor, single point]
CC(=O)c1ccc(-n2nnnc2SCC(=O)Nc2cccc(NC(=O)c3ccco3)c2)cc1	inconclusive: 3.98 µM [inhibitor, full curve]
CCN1C(=O)/C(=C/C=C2\N(CC)c3cc(S(=O)(=O)N(C)C)ccc3N2c2ccccc2)SC1=S	active: 0.794 µM
CC1(C)Cc2c(c(-c3ccco3)[nH]c(=O)c2C#N)CS1	active: 31.6 µM
NS(=O)(=O)c1ccc(CCNC(=O)c2cc(-c3ccccc3)nc3ccccc23)cc1	inconclusive: 1.41 µM [inhibitor, full curve]
COc1ccc(CCN(C)CCC(=O)Nc2cc(C)ccc2C)cc1OC	inactive
COCCN(CCOC)c1nc(C)nc2c1nc(-c1ccccc1)n2CC1CCN(C)CC1	inactive
O=S1(=O)N=C(N/N=C/c2ccco2)c2ccccc21	inactive
CCCCN1C=CC(=C2C(=O)c3ccccc3C2=O)C=C1	inconclusive: 35.5 µM [inhibitor, single point]
O=C(Nc1cccc(-c2nc3ccccc3[nH]2)c1)c1ccc(C(=O)Nc2cccc(-c3nc4ccccc4[nH]3)c2)cc1	inconclusive: 22.4 µM [inhibitor, single point]

Individual results from the entries so far:
Under Potency, `COc1ccc(CCNC(=O)CC2SC(=NCc3ccccc3)NC2=O)cc1` (stereo not drawn) reads inconclusive: 6.31 µM [inhibitor, single point]
Under Potency, `O=c1c(O)c(-c2ccc(O)cc2O)oc2cc(O)cc(O)c12` reads active: 15.8 µM and active: 7.08 µM

Next part:

SMILES	Potency
N=C1SC(c2ccccc2)C(=O)N1c1ncc(Cc2ccccc2Cl)s1 (stereo not drawn)	active: 25.1 µM
Nc1ccc(N2CCCCCC2)cc1	active: 14.1 µM
O=C(CN(Cc1ccccc1)S(=O)(=O)c1ccc(F)cc1)NCCC1=CCCCC1	inactive
CC1CCC(C(C)C)C(=O)C1 (stereo not drawn)	inactive
CNc1ccc(Br)cc(C(=O)/C=C/c2cccc(OC)c2)c1=O	active: 28.2 µM
COc1ccc(NC2=C3CCCC=C3N(c3ccc(OC)cc3)C2=O)cc1	inconclusive: 0.794 µM [inhibitor, partial curve, poor fit]
Cc1nc(C(=O)NC(C)C)nn1-c1cc(Cl)cc(Cl)c1	inconclusive: 0.0447 µM [inhibitor, full curve]
O=C(CN1CCCCC1)Nc1cccc([N+](=O)[O-])c1	inconclusive: 5.01 µM [inhibitor, partial curve]
COCCNC(=O)c1ccc(-n2c(SCc3cc(F)ccc3F)nc3ccccc3c2=O)cc1	inconclusive: 1.78 µM [inhibitor, full curve]
CN(C)c1ccc(NC(=O)Oc2ccccc2)cc1	inactive
Cn1c(SCC(=O)N/N=C/C=C/c2ccccc2[N+](=O)[O-])nc2ccccc21	inactive
O=C(NNc1c2ccccc2nc2ccccc12)c1ccccc1O	inconclusive: 28.2 µM [inhibitor, partial curve]
Cc1c(NC(=O)C(C)OC(=O)c2ccc([N+](=O)[O-])s2)c(=O)n(-c2ccccc2)n1C (stereo not drawn)	inactive
N#C/C(=C/c1ccncc1)c1nc2ccccc2s1	inconclusive: 10 µM [inhibitor, partial curve]
COc1cc(/C=C2/SC(=S)N(c3c(C)n(C)n(-c4ccccc4)c3=O)C2=O)ccc1O	active: 22.4 µM
Cc1c(C(=O)O)sc2nc3n(c(=O)c12)CCC3	inconclusive: 39.8 µM [inhibitor, single point]
Cc1ccc(OCCn2cc(/C=N/NC(=O)c3ccncc3)c3ccccc32)cc1	active: 25.1 µM
Cc1cc(C)nc(/N=c2/ssnc2Cl)c1	inactive
O=C(O)c1ccc2c3c(ncnc13)-c1ccccc1C2=O	inactive
O=C(NCCCN1CCCC1=O)C1CCN(S(=O)(=O)N2CCOCC2)CC1	inactive
COc1ccc2c(Cl)c(-c3nnc(SCC(N)=O)n3C)sc2c1	inactive
O=[N+]([O-])c1ccc(C2Oc3ccccc3C3CC(c4ccccc4)=NN32)s1 (stereo not drawn)	inconclusive: 0.178 µM [inhibitor, full curve, poor fit]
COc1cc(OC)c2c(-c3ccccc3)cc(=O)oc2c1C(CC(=O)N1CCCC1)c1ccc2c(c1)OCO2 (stereo not drawn)	inconclusive: 39.8 µM [inhibitor, single point]
COc1ccc(-c2cn3cccc(C)c3n2)cc1Br	inconclusive: 31.6 µM [inhibitor, partial curve]
